Laboratory results as given in PubChem BioAssay AID504467 (National Center for Advancing Translational Sciences (NCATS), 2011).
The whole screen tested about 330,000 compounds, of which about 7,700 (2.3%) were called active. The shares of active, inactive and inconclusive entries below differ from those in the screen. The call rests on the fitted dose curve; in most records, active means well fitted inhibition curve with a large enough effect; inconclusive means small, poorly fitted or top-dose-only effect, or effect the other way; inactive means flat fitted curve, though single readings scatter. Potencies of inconclusive entries are doubtful fits and often do not repeat.

Assay: qHTS screen for small molecules that inhibit ELG1-dependent DNA repair in human embryonic kidney (HEK293T) cells expressing luciferase-tagged ELG1; further: nearly all actives have a fitted effect of over 55% in size
Details: HEK293T ELG1-luciferase reporter, luminescence, 16 h, DNA damage induced by 5-fluorouridine; series mostly up to 46.1 µM
Method in brief: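 5-Fluorouridine DNA damage + compound/DMSO, 2,000 cells/well, 16 h, 37 °C/5% CO2. ONE-Glo, 30 min RT, luminescence. Readout = decrease in reporter signal.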
Potency means the concentration at half of the fitted maximal effect.

SMILES | Potency
COc1ccc(COC(=O)C2=C(C)NC(=O)NC2c2cccc(OC)c2OC)cc1 (centres undefined) | inactive
C/C(=N\NC(=O)c1ccc(NS(=O)(=O)c2cccs2)cc1)c1ccc2ccccc2c1 | inconclusive: 32.6 µM [activator, partial curve, poor fit]
O=C(Nc1cc(C(F)(F)F)ccc1N1CCOCC1)C1Cc2ccccc2CN1C(=O)c1ccco1 (centres undefined) | inactive
CCOC(=O)c1c(C)c(C(=O)Nc2ccc3c(c2)OCCO3)c(C)n1CC | inactive
Cc1nc(-c2ccccc2)nc(Cl)c1Cl | inconclusive: 0.013 µM [activator, full curve]
CC1CN=C(N(Cc2ccccc2)C(=O)Nc2ccccc2)S1 (centres undefined) | inconclusive: 29.1 µM [activator, single point]
COc1cc(NS(=O)(=O)c2ccc(Br)cc2)c(OC)cc1NC(=O)c1ccco1 | inconclusive: 25.9 µM [inhibitor, single point]
CC(=O)c1ccc(S(=O)(=O)N2CCCC2)cc1 | inconclusive: 23.1 µM [activator, partial curve]
O=C(O)c1cccc(OCc2ccccc2Cl)c1 | inconclusive: 2.31 µM [activator, partial curve]
CC(C)CCNS(=O)(=O)c1cc2c3c(c1)CCN3C(=O)CC2 | inconclusive: 29.1 µM [activator, single point]
COc1ccc(/C=N/OCC(=O)N2CCCC2)c(OC)c1 | inconclusive: 29.1 µM [activator, single point]
CCCNC(=O)c1ccc2c(=O)c(O)c(-c3ccsc3)[nH]c2c1 | inactive
CCOc1cc(NC(=S)NCC2CCCO2)c(OCC)cc1NC(=O)c1cccc(C)c1 (centres undefined) | inconclusive: 29.1 µM [inhibitor, single point]
CCCOc1ccc(C(=O)NNC(=S)NC(=O)c2cc(-c3ccccc3)nc3ccccc23)cc1 | inactive
O=C(CSc1nnc(NC(=O)C2CC2)s1)NCc1ccccc1 | inactive
CN(Cc1ccccc1)C(=O)CSc1nc2ccccc2[nH]1 | inconclusive: 20.6 µM [activator, single point]
CCCCCCN=C(C)C1=C(O)C(C(=O)OC)C(C)(C)CC1=O (centres undefined) | inconclusive: 16.4 µM [inhibitor, single point]
CCN(CC)S(=O)(=O)c1ccc(Cl)c(NC(=O)c2ccccc2C)c1 | inactive
O=C(CSc1ccc(-c2ccccc2)nn1)N1CCOCC1 | inconclusive: 20.6 µM [activator, partial curve, poor fit]
COc1cc(OC)cc(C(=O)Nc2nc3ccc(S(C)(=O)=O)cc3s2)c1 | inconclusive: 2.31 µM [activator, single point]
Cc1sc(NC(=O)C2=COCCO2)nc1-c1ccc(Br)cc1 | inconclusive: 29.1 µM [activator, single point]
CCN(CC(=O)Nc1ccc(C)c(S(=O)(=O)N2CCOCC2)c1)Cc1ccccc1 | inconclusive: 29.1 µM [inhibitor, partial curve, poor fit]

Random excerpt: three entries already listed, in no set order.
SMILES | Potency
Cc1sc(NC(=O)C2=COCCO2)nc1-c1ccc(Br)cc1 | inconclusive: 29.1 µM [activator, single point]
O=C(CSc1ccc(-c2ccccc2)nn1)N1CCOCC1 | inconclusive: 20.6 µM [activator, partial curve, poor fit]
O=C(CSc1nnc(NC(=O)C2CC2)s1)NCc1ccccc1 | inactive

Further results.

SMILES | Potency
O=C(CCc1ccccc1)Nc1cccnc1 | inconclusive: 20.6 µM [activator, partial curve]
COc1ccc(OC)c(/C=N/NC2=NS(=O)(=O)c3ccccc32)c1 | inactive
O=C(CN(c1ccc2c(c1)OCCO2)S(=O)(=O)c1ccccc1)NCc1ccco1 | inconclusive: 29.1 µM [inhibitor, single point]
COc1ccc(C2Nc3ccccc3C(=O)N2Cc2ccco2)cc1COc1ccc(NC(C)=O)cc1 (centres undefined) | inconclusive: 23.1 µM [inhibitor, partial curve]
CCC(C)[C@H]1CNC(=S)N1CCc1cccc2ccccc12 (some centres undefined) | inactive
COc1c2c(cc3c1C(CC(O)Cc1ccccc1)N(C)CC3)OCO2 (centres undefined) | inactive
COc1ccc(OCC(=O)N/N=C\c2ccco2)cc1 | inactive
Cn1c(O)c(/C=N/NC(=O)c2cc3ccccc3cc2O)c2ccccc21 | inconclusive: 3.66 µM [activator, single point]
Cc1cc([N+](=O)[O-])ccc1NC(=O)CSc1nncn1-c1cccnc1 | inactive
CCCCN(C(=O)Cc1cccs1)c1nnc(-c2cccnc2)s1 | inconclusive: 3.66 µM [activator, full curve]
O=C(c1ccco1)c1coc2c1cc(O)c1ccccc12 | inconclusive: 29.1 µM [activator, single point]
COc1ccc(-c2cc(C3CCN(c4cc(Cl)nc(N)n4)CC3)[nH]n2)cc1 | inconclusive: 5.8 µM [inhibitor, full curve, poor fit]
CCN1CCc2c(OCC(=O)N3N=C(c4cccs4)CC3c3ccc(F)cc3)cccc2C1=O (centres undefined) | inconclusive: 23.1 µM [inhibitor, partial curve]
Cc1cnc(NC(=O)CSc2ncc(-c3ccccc3)n2Cc2ccco2)s1 | inconclusive: 29.1 µM [inhibitor, partial curve, poor fit]
COc1ccccc1CCNC(=O)C(=O)NCC1OCCN1S(=O)(=O)c1ccc(OC)c(OC)c1 (centres undefined) | active: 20.6 µM
O=C(NNC(=S)Nc1cccc(Cl)c1)c1ccccc1OC(F)F | inconclusive: 13 µM [inhibitor, partial curve, poor fit]
CCCCN(C)C(=O)CSc1nc(NCc2ccc(OC)cc2)c2ccccc2n1 | inconclusive: 32.6 µM [inhibitor, partial curve, poor fit]
COc1ccc(-c2sc3ccc(OC)cc3c2C#Cc2cncn2C)cc1 | active: 5.8 µM
O=C(CCSc1ccccc1)N1CCN(c2ccccc2F)CC1 | inconclusive: 10.3 µM [activator, partial curve]
CCOC(=O)Cc1csc(N(C)C)n1 | inconclusive: 32.6 µM [activator, partial curve, poor fit]
COc1ccc(/C=N/NC(=O)c2ccc(NS(=O)(=O)c3cccs3)cc2)cc1 | inconclusive: 16.4 µM [activator, partial curve]
COc1ccc(C(=O)CCc2ccccc2O)c(OC)c1 | inconclusive: 11.6 µM [activator, partial curve]
